Laboratory results from patent US20250223262A1, “[…] OF […] REDUCED HERG ACTIVITY AND MOP BINDING” (Heinrich-Heine-Universität Düsseldorf, priority 2022, published 2025).
At least one structure is not confirmed: it was looked up by name or label, or the drawing left a doubt. Some of these results come from one statement about several compounds together.

Amino acid sequences for entries named in this document (tags omitted). A change or cut given only in a name is not applied to a line headed by its entry.
UniProt Q12809: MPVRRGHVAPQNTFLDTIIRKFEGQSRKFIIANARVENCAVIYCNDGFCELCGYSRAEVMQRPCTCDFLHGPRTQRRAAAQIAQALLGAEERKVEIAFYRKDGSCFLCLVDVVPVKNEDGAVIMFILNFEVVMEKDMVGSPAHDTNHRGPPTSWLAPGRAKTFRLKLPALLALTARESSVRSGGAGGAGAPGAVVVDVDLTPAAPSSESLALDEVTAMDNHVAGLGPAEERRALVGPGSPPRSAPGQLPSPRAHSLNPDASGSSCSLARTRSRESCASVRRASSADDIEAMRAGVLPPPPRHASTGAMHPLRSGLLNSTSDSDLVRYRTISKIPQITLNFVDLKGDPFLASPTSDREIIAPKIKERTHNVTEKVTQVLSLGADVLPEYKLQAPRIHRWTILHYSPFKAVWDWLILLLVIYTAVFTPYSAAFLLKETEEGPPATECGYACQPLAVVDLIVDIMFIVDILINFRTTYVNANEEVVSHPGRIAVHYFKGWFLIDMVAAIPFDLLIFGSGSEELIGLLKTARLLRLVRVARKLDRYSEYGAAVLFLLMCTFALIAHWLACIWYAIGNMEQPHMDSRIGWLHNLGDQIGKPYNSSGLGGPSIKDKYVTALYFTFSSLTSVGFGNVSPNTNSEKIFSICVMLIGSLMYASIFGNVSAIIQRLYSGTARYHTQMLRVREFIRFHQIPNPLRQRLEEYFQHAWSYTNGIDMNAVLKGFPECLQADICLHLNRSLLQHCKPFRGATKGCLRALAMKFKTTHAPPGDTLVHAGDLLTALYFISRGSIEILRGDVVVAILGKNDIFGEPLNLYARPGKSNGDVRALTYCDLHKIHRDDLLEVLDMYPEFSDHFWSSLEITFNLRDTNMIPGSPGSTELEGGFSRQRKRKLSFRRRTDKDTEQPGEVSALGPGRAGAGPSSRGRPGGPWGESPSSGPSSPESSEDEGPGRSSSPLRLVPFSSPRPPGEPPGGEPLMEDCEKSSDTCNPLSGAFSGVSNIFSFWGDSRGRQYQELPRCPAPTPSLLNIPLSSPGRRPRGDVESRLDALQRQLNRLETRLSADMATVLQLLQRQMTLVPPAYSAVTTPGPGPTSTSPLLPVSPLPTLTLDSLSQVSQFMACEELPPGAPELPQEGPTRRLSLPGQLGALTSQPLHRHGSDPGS

Columns and labels:
[1] = target: T1, potassium voltage-gated channel subfamily H member 2 (hERG) (Homo sapiens, UniProt Q12809); test: hERG channel binding assay ([3H] Dofetilide); conditions: 10 μM, HEK-293 cells, 2 repetitions
T1 construct: expressed in transfected cells; host or cells: HEK-293
Description: For the hERG channel binding assay, compound binding was calculated as % inhibition of the binding of a radioactively labeled ligand that is specific for the target (i.e., [3H] Dofetilide). HEK-293 cells (human embryonic kidney cells) were used for these binding assays. The compounds were tested at a concentration of 10 μM and 2 repetitions were conducted for each compound.

[2] = Blood-brain barrier permeability (CSF and blood concentrations by MS/MS); type: in vivo; conditions: mice, CSF and blood 30 min after i.p. administration, compared to DXO, FIG. 4

Compound | hERG inhibition (% inhibition of the binding of a ligand specific for the target) [1] [%] | blood-brain barrier (BBB) permeability [2]
1-[(1S,9S)-4-methoxy-17-methyl-17-azatetracyclo[7.5.3.0^1,^10,0^2,^7]heptadeca-2(7),3,5-trien-5-yl]-N,N-dimethylpyrrolidin-3-amine [Compound 31] | < 15 | –
4-[(1S,9S)-4-methoxy-17-methyl-17-azatetracyclo[7.5.3.0^1,^10,0^2,^7]heptadeca-2(7),3,5-trien-5-yl]-1-methylpiperazin-2-one [Compound 36] | < 15 | –
COc1cc2c(cc1NC(=O)c1c[nH]cn1)C[C@H]1C3CCCC[C@@]23CCN1C (stereo partly drawn) [Compound 3, N-[(1S,9S)-4-methoxy-17-methyl-17-azatetracyclo[7.5.3.0^1,^10,0^2,^7]heptadeca-2(7),3,5-trien-5-yl]-1H-imidazole-4-carboxamide] | < 15 | –
COc1cc2c(cc1NC(=O)C1CCNC1)C[C@H]1C3CCCC[C@@]23CCN1C (stereo partly drawn) [Compound 5, N-[(1S,9S)-4-methoxy-17-methyl-17-azatetracyclo[7.5.3.0^1,^10,0^2,^7]heptadeca-2(7),3,5-trien-5-yl]pyrrolidine-3-carboxamide] | < 15 | –
COc1cc2c(cc1NC(=O)c1cncn1C)C[C@H]1C3CCCC[C@@]23CCN1C (stereo partly drawn) [Compound 7, N-[(1S,9S)-4-methoxy-17-methyl-17-azatetracyclo[7.5.3.0^1,^10,0^2,^7]heptadeca-2(7),3,5-trien-5-yl]-1-methyl-1H-imidazole-5-carboxamide] | – | reduced blood-brain barrier (BBB) permeability
COc1cc2c(cc1NC(=O)C1CCOCC1)C[C@H]1C3CCCC[C@@]23CCN1C (stereo partly drawn) [Compound 9, N-[(1S,9S)-4-methoxy-17-methyl-17-azatetracyclo[7.5.3.0^1,^10,0^2,^7]heptadeca-2(7),3,5-trien-5-yl]oxane-4-carboxamide] | < 15 | –
COc1cc2c(cc1NC(=O)C1CCNCC1)C[C@H]1C3CCCC[C@@]23CCN1C (stereo partly drawn) [Compound 15, N-[(1S,9S)-4-methoxy-17-methyl-17-azatetracyclo[7.5.3.0^1,^10,0^2,^7]heptadeca-2(7),3,5-trien-5-yl]piperidine-4-carboxamide] | < 15 | –
COc1cc2c(cc1N(C)C(N)=O)C[C@H]1C3CCCC[C@@]23CCN1C (stereo partly drawn) [Compound 22, 1-[(1S,9S)-4-methoxy-17-methyl-17-azatetracyclo[7.5.3.0^1,^10,0^2,^7]heptadeca-2(7),3,5-trien-5-yl]-1-methylurea] | < 15 | –
COc1cc2c(cc1NS(C)(=O)=O)C[C@H]1C3CCCC[C@@]23CCN1C (stereo partly drawn) [Compound 27, N-[(1S,9S)-4-methoxy-17-methyl-17-azatetracyclo[7.5.3.0^1,^10,0^2,^7]heptadeca-2(7),3,5-trien-5-yl]methanesulfonamide] | < 15 | –
COc1cc2c(cc1N1CC3(COC3)C1)C[C@H]1C3CCCC[C@@]23CCN1C (stereo partly drawn) [Compound 37, (1S,9S)-4-methoxy-17-methyl-5-{2-oxa-6-azaspiro[3.3]heptan-6-yl}-17-azatetracyclo[7.5.3.0^1,^10,0^2,^7]heptadeca-2(7),3,5-triene] | < 15 | –
N-[(1S,9S)-4-methoxy-17-methyl-17-azatetracyclo[7.5.3.0^1,^10,0^2,^7]heptadeca-2(7),3,5-trien-5-yl]-2,2-dimethylpropanamide [Compound 17] | < 15 | –
